Data on five compounds can be found in patent US20170051112A1, “RESIN COMPOSITION SUITABLE FOR PRINTING AND PRINTING METHOD UTILIZING THE SAME” (MONTANUNIVERSITÄT LEOBEN, priority 2014, published 2017).

A value given as a limit tells only on which side of the number the result lay.

This data set can be described thus: Reaction kinetics / residual monomer content by real-time FTIR spectroscopy. Particulars: content of alkyne or alkene after a reaction time of 2 min of irradiation; 5 wt.-% photoinitiator; alkynes with TMPMP.
With `C=CC(=O)OCCCCOC(=O)C=C` [1,4-butanediol diacrylate, reference compound], the Residual monomer content is listed as 21%.

`CCC#COCCCCOC#CCC` [1,4-butanediol dibut-1-ynyl ether] returned a Residual monomer content below 1%.

Regarding `C=C(C)C(=O)OCCCCOC(=O)C(=C)C` [1,4-butanediol dimethacrylate, reference compound], the Residual monomer content was 26%.

As for `C#CCOCCCCOCC#C` [1,4-butanediol dipropargyl ether], the Residual monomer content was 2%.

As for `CCC#COCCOC(COCC)OC#CCC` (centres unmarked) [1,4-triethyleneglycol dibut-1-ynyl ether], the Residual monomer content is below 1%.
